Binding data for 12 molecules are collected here from doi:10.1101/2021.05.14.444139.

This assay concerns the target PQN-59 (C. elegans (endogenous in N2 embryos)). Put plainly: affinity purification with mass spectrometry.

Results are given in words; binding and its absence hold for the method and conditions named. In cells and extracts the contact can be indirect. Here binding means that the protein was enriched with, or labelled near, the bait; the list need not be complete.

B1: Small Ribosomal Subunit 2 (protein, UniProt P51403 1-272)
chain: MADRGGFQSGFGGRGGGRGGARPAGDRPAGRGGRGGRGGRGGRGGRAGRGGEKETEWTPVTKLGRLVKEKKITTLEEIYLNSLPIKEFEIIDALCSNLKDEVLKISPVQKQTTAGQRTRFKAFVAIGDHAGHVGLGVKCSKEVATAIRGAIVAAKLAVVPVRRGYWGNKIGLPHTVPCKVTGKCASVMVRLIPAPRGTGIVSAPVPKKLLHMAGIEDCYTAAKGSTATLGNFAKATYAALQRTYSYLTPDLWKEEALEKSPYQRHHEYLARN
In the case of B1, the binding result was “binds”.

B2: Large Ribosomal subunit 33 (protein, UniProt P49180 1-124)
chain: MADTAVARRPSAPTTGRLYVKAIFTGFKRGLRTQSEHTSLLKLEGVFNKEDAGFYAGKRVVYLYKAHNKTLKTGHTVATRTRAIWGKITRPHGNAGAVRAKFHHNIPPSALGKRIRVLLYPSNI
With B2, the binding entry was “binds”.

B3: Small Ribosomal Subunit 7 (protein, UniProt Q23312 1-194)
chain: MPEIIGKLLKSDGKVVSEIEKQVSQALIDLETNDDVQSQLKELYIVGVKEVELGNKSAIIIYVPVPQLKAFHKIHPALVRELEKKFGGRDILILAKRRILPKPQRGSKARPQKQKRPRSRTLTAVHDAWLDELVYPAEVVGRRIRVKLDGKKVYKVHLDKSHQTNVGHKIGVFASVYRKLTGKDVTFEFPDPIF
With B3, the binding entry is given as “binds”.

B4: Large Ribosomal subunit 28 (protein, UniProt Q21930 1-126)
chain: MSDALVWQVIRNNSAFLRTQRGIGKRFSTEKFNLKKVNSPKYSGLANKHAIDVSAAAKGVVVSTKNEKGRPAKAVTTSTLSKTPVASVRRLAKNAGFNKFNKLAQRRAAAIVRSQVKKAKVQKTDA
Consider B4, for which the binding entry is on record as “binds”.

B5: Small Ribosomal Subunit 13 (protein, UniProt P51404 1-151)
chain: MGRMHNPGKGMAKSAIPYRRSVPSWQKMTAEEVQDQIVKMAKKGLRPSQIGVILRDSHGVGQVRRLAGNKIFRILKSKGMAPELPEDLYHLVKKAVAIRKHLERSRKDIDSKYRLILVESRIHRLARYYKTKRQLPPTWKYESGTAASLVS
On to B5, for which the binding result is listed as “binds”.

B6: Small Ribosomal Subunit 3 (protein, UniProt P48152 1-247)
chain: MAANQNVTKKKKAVIGGIFKAELNNFLMKELAEDGYSGVEVRSTPARAEVIIMATRTQNVLGERGRRIKELTSVVQKRFGFEEGSVELYAEKVSNRGLCAVAQCESLRYKLVGGLAVRRACYGVLRFIMESGAQGVEVIVSGKLRGQRAKAMKFVDGLMIHSGHPVNDYIQQAVRHVQLRQGVIGIKVKIMLPYDPRGQNGPRNALPDHVQIVEPQEEVLPKEPHSQHKEEKKDVQVPAAQPVAPVQ
For the molecule B6, the binding result is recorded as “binds”.

B7: Small Ribosomal Subunit 17 (protein, UniProt O01692 1-130)
chain: MSRVRTKTVKKASRVLIEKYYTRMTNDFHNNKRVCDEVAIIGSKPLRNKIAGYITHLMRRIERGPVRGISIKLQEEERERRDNYMPEISTVDPSQLTSIKVDTDTSDMLKAAGFNLPNVTVEDQGKNKGK
As to B7, the binding result is reported as “binds”.

B8: Small Ribosomal Subunit 12 (protein, UniProt P49196 1-140)
chain: MSDAGGDVQVAPAAVAQGPMDKEGALRAVLRAAHHADGLAKGLHETCKALDKREAHFCVLAENCDEPQYVKLVETLCAEHQIPLIKVADKKIIGEYCGLCKYDKEGKARKVVGCSSAVVTNWGNEEQGRAILTDYFASKN
For B8, the binding entry is “binds”.

B9: Small Ribosomal Subunit 8 (protein, UniProt P48156 1-208)
chain: MGISRDSWHKRYKTGATQPVPHKKRKFELGRPAANTKIGAHRVRLVRTRGGNEKYRALRLDSGNFSWASEQTTRKTRIVDTMYNATNNELVRTKTLVKGAIISVDAAPFRQWYEAHYALPLARKKNAKLSEEDNAILNKKRSHHTMKKYTERQKTAAVDALLIEQFNTGRLLARISSSPGQVGQANGYILEGKELDFYLRKIRAKKAK
For B9, the binding entry was “binds”.

B10: Small Ribosomal Subunit 27 (protein, UniProt Q9TXP0 1-83)
chain: MPLAVDLLHPEPQREIRCHKLKRLVQHPNSYFMDVKCSGCFKISTVFSHATTVVVCVGCNTVLCQPTRGKAKLTEGCSFRKKQ
Turning to B10, the binding entry is on record as “binds”.

B11: Large Ribosomal subunit 6 (protein, UniProt P47991 1-217)
chain: MVGKRNLPVISRNFDLSPGVLRFSASRLRLKKGEKKPKFTKDTSAKLPKLQRNGTKFALGHSKTVTLRKTLTPGTVLIVLAGRHKGKRVVFLKQLPQSGLLLVTGPHKINGFPLRRIGQAFVIATSLKVNVSGVKIPEHINDEYFKRKSTAQKTGKNIFASGKTEYTVSEQRKKDIKTVDAPILAAIKKHPEHKFLFGYLGTRFSLGKNQYPHKMQF
Take B11: the binding result was “binds”.

B12: Large Ribosomal subunit 13 (protein, UniProt P91128 1-207)
chain: MAPRGNQMLGNAHFRKHWHKRIKTWFDQPARKLRRRQNRQAKAVEIAPRPVAGLLRSVVRCPQKRYNTKTRLGRGFSLQELKAAGISQAQARTIGIAVDVRRTNKTAEGLKANADRLKEYKAKLILFPKKASAPKKGDSSAEELKVAAQLRGDVLPLSHTITFDEPRQVTDAERKVEIFRLLRKERADKKYRGKREKRAREAAEENK
In the case of B12, the binding entry was “binds”.
